The whole screen tested about 52,000 sequences, of which about 210 (0.4%) were called active.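 The calls were made as follows: active = gene whose silencing raises cell survival under the drug, median off-target-corrected z-score across its silencing RNAs 2 or more; inactive = the rest.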 The list shows a part of the results.

This assay can be described thus: Resistance to Poly (ADP-Ribose) Polymerase inhibitor: Gene Identification via Genome-wide siRNA Screen. Particulars: mouse BRCA2 R2336H ES cells, olaparib, CellTiter-Glo viability; stronger effect = higher value. The method, boiled down:
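Mouse BRCA2 R2336H ES cells were reverse-transfected with siRNA (20 nM final), treated at 48 h with 500 nM olaparib, and read by CellTiter-Glo after 72 h. Scores: MAD-based z per siRNA, median per gene, seed off-target correction.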
Background: In ATP-based viability assays light output follows the ATP content of the culture.
With CGGGCUGAUUCAACUGGUGTT against Kif1b, the z-score is inactive: -0.196.

Turning to GGUAGACUGUGAAAAUGACTT against Ldlr, the z-score was inactive: 2.65.

On to GGUGAAGUCAUCACUAUUGTT against Trpm2, for which the z-score is inactive: -0.636.

GCCAAUGGACCACAAACUGTT against Lass6: the z-score was inactive: -0.377.

Turning to CGCUGGACUGGAAUACUCATT against Zfp1, the z-score was inactive: -1.25.

Regarding GGACAGAUGGAAUAGUGAATT against Klra10, the z-score is inactive: -0.373.

As for CCAAGAUCCCGUUAAACAATT against Defb3, the z-score was inactive: 1.34.

Regarding GCACUUGAAUCGAUUGAAUTT against AW011752, the z-score was inactive: 0.225.

Take CCAAGAUGGGUUCAUCUCUTT against Cabp5: the z-score is inactive: -0.294.

With GGAGCCAGUCCAAAUUGCATT against Il13ra1, the z-score was inactive: 0.0419.

Take GGGUUCAGACAUGUUGUUATT against Ang1: the z-score was inactive: 0.589.

Turning to GAGCUGGCAAUCUUUCUCUTT against Olfr1156, the z-score was inactive: 0.649.

Regarding “CGGAUUUCAUGGCUCAAGATT against A930009M04Rik”, the z-score is inactive: 0.503.

Consider “GGACAAGUGAUCUCCAUGGTT against D730040F13Rik”, for which the z-score is inactive: -1.24.

As for GCAGUGGUUUGAUCUAUUUTT against Cul5, the z-score is inactive: -1.36.

As to “GCCUGGUUAAGGCAUGAUATT against 4930549O06”, the z-score is inactive: 0.725.

Turning to GCGACAAAUCGCGCUAUGATT against Grm3, the z-score was inactive: -1.9.

On to GCCAUAGGCUCAUCUUUACTT against Ankib1, for which the z-score was inactive: 0.12.

As for CGCAGACAGAGACAACCUGTT against Casp6, the z-score was inactive: 0.0732.

Turning to GCUGAAUGGUCUUGUUACATT against BC043301, the z-score is inactive: -0.0975.

With GCUCCGAAUUUUGCUGAUCTT against Galc, the z-score was inactive: 0.556.

In the case of GGAAAGAUGCCGGAAAAUCTT against Ppp1r14a, the z-score was inactive: 0.479.

In the case of GGUUGUGUUUACCAUGAAGTT against Rps6ka6, the z-score is inactive: 1.45.

For the sequence GGGAAGAAAAUAUGGAAAATT against Isgf3g, the z-score was inactive: -0.345.

On to GGAGCCACAUGAAACACUATT against Dp1l1, for which the z-score is inactive: -0.484.

Take CCUAGAGAGUUAGAAAUAATT against Clpx: the z-score is inactive: -0.79.

For the sequence GCCAAUGAGCAGACUGUAUTT against Sycp1, the z-score is inactive: 0.483.

For the sequence GGGUAGUUAUACAAACUAATT against Snapc5, the z-score was inactive: 1.4.

Consider CGAUUGUCGGGUUUUGUUUTT against Nutf2, for which the z-score was inactive: -2.63.

The record behind these values is PubChem BioAssay AID1347423 (Functional Genomics Laboratory (NCATS/FGL), 2020).
